The target in test [1] is T1, FLAG-Trx1 C35S-HA expressed in a cardiac-specific manner in transgenic mice (trapping mice) (UniProt P10599).
T1 sequence: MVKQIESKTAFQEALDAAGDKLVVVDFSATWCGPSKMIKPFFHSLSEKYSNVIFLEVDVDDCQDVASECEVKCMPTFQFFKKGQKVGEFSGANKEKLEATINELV
Nature of the test: co-IP; heart homogenates (sham or ischemic areas, ischemia 20 min) of Tg-Flag-Trx1 C35S and WT mice; anti-FLAG-agarose beads, immunoblot for Atg7; interaction strengthened by ischemia. For orientation: In western blotting, separated proteins are transferred to a membrane and probed.

In test [2] the target is T2, Trx1 trapping mutant (Trx1 C35S) coexpressed with the Atg7 mutants (Figure 3F) (human) (UniProt P10599).
T2 sequence: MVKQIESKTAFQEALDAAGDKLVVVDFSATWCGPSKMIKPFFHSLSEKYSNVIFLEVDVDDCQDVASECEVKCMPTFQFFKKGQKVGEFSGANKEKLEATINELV
In words: co-IP; HEK293 cells with the indicated plasmids for 48 h (legend; the text says cardiomyocytes); Atg7 WT or mutants coexpressed with the Trx1 trapping mutant.

No constants are given. Whether binding was seen depends on the method and setting. Binding seen in cells or lysates may run through a third protein. Some binding calls cover weakened binding; strength is not graded here. For part of these data: Sequences can lack the tags named with a protein.

B1: Atg7, endogenous in mouse heart (enzyme, UniProt Q9D906 1-698)
chain: MGDPGLAKLQFAPFNSALDVGFWHELTQKKLNEYRLDEAPKDIKGYYYNGDSAGLPTRLTLEFSAFDMSASTPAHCCPAMGTLHNTNTLEAFKTADKKLLLEQSANEIWEAIKSGAALENPMLLNKFLLLTFADLKKYHFYYWFCCPALCLPESIPLIRGPVSLDQRLSPKQIQALEHAYDDLCRAEGVTALPYFLFKYDDDTVLVSLLKHYSDFFQGQRTKITVGVYDPCNLAQYPGWPLRNFLVLAAHRWSGSFQSVEVLCFRDRTMQGARDVTHSIIFEVKLPEMAFSPDCPKAVGWEKNQKGGMGPRMVNLSGCMDPKRLAESSVDLNLKLMCWRLVPTLDLDKVVSVKCLLLGAGTLGCNVARTLMGWGVRHVTFVDNAKISYSNPVRQPLYEFEDCLGGGKPKALAAAERLQKIFPGVNARGFNMSIPMPGHPVNFSDVTMEQARRDVEQLEQLIDNHDVIFLLMDTRESRWLPTVIAASKRKLVINAALGFDTFVVMRHGLKKPKQQGAGDLCPSHLVAPADLGSSLFANIPGYKLGCYFCNDVVAPGDSTRDRTLDQQCTVSRPGLAVIAGALAVELMVSVLQHPEGGYAIASSSDDRMNEPPTSLGLVPHQIRGFLSRFDNVLPVSLAFDKCTACSPKVLDQYEREGFTFLAKVFNSSHSFLEDLTGLTLLHQETQAAEIWDMSDEETV
For the molecule B1, in test [1], the binding result is “binds”.

B2: Atg7(C545S) (enzyme, UniProt Q9D906 1-698)
chain: MGDPGLAKLQFAPFNSALDVGFWHELTQKKLNEYRLDEAPKDIKGYYYNGDSAGLPTRLTLEFSAFDMSASTPAHCCPAMGTLHNTNTLEAFKTADKKLLLEQSANEIWEAIKSGAALENPMLLNKFLLLTFADLKKYHFYYWFCCPALCLPESIPLIRGPVSLDQRLSPKQIQALEHAYDDLCRAEGVTALPYFLFKYDDDTVLVSLLKHYSDFFQGQRTKITVGVYDPCNLAQYPGWPLRNFLVLAAHRWSGSFQSVEVLCFRDRTMQGARDVTHSIIFEVKLPEMAFSPDCPKAVGWEKNQKGGMGPRMVNLSGCMDPKRLAESSVDLNLKLMCWRLVPTLDLDKVVSVKCLLLGAGTLGCNVARTLMGWGVRHVTFVDNAKISYSNPVRQPLYEFEDCLGGGKPKALAAAERLQKIFPGVNARGFNMSIPMPGHPVNFSDVTMEQARRDVEQLEQLIDNHDVIFLLMDTRESRWLPTVIAASKRKLVINAALGFDTFVVMRHGLKKPKQQGAGDLCPSHLVAPADLGSSLFANIPGYKLGSYFCNDVVAPGDSTRDRTLDQQCTVSRPGLAVIAGALAVELMVSVLQHPEGGYAIASSSDDRMNEPPTSLGLVPHQIRGFLSRFDNVLPVSLAFDKCTACSPKVLDQYEREGFTFLAKVFNSSHSFLEDLTGLTLLHQETQAAEIWDMSDEETV
Turning to B2, the binding entry in test [2] was “binds”.

B3: Atg7(C548S) (enzyme, UniProt Q9D906 1-698)
chain: MGDPGLAKLQFAPFNSALDVGFWHELTQKKLNEYRLDEAPKDIKGYYYNGDSAGLPTRLTLEFSAFDMSASTPAHCCPAMGTLHNTNTLEAFKTADKKLLLEQSANEIWEAIKSGAALENPMLLNKFLLLTFADLKKYHFYYWFCCPALCLPESIPLIRGPVSLDQRLSPKQIQALEHAYDDLCRAEGVTALPYFLFKYDDDTVLVSLLKHYSDFFQGQRTKITVGVYDPCNLAQYPGWPLRNFLVLAAHRWSGSFQSVEVLCFRDRTMQGARDVTHSIIFEVKLPEMAFSPDCPKAVGWEKNQKGGMGPRMVNLSGCMDPKRLAESSVDLNLKLMCWRLVPTLDLDKVVSVKCLLLGAGTLGCNVARTLMGWGVRHVTFVDNAKISYSNPVRQPLYEFEDCLGGGKPKALAAAERLQKIFPGVNARGFNMSIPMPGHPVNFSDVTMEQARRDVEQLEQLIDNHDVIFLLMDTRESRWLPTVIAASKRKLVINAALGFDTFVVMRHGLKKPKQQGAGDLCPSHLVAPADLGSSLFANIPGYKLGCYFSNDVVAPGDSTRDRTLDQQCTVSRPGLAVIAGALAVELMVSVLQHPEGGYAIASSSDDRMNEPPTSLGLVPHQIRGFLSRFDNVLPVSLAFDKCTACSPKVLDQYEREGFTFLAKVFNSSHSFLEDLTGLTLLHQETQAAEIWDMSDEETV
B3: the binding result in test [2] is “binds”.

These data come from publication PMC9888389.
